PubChem BioAssay AID1259308 – NCATS – 2017

Aim: 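Candidate targets for better recombinant protein yield in mammalian cells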 (primary screen)
Cell system: human HEK293 embryonic kidney cells stably expressing firefly luciferase (HEK-CMV-Luc2-Hygro)
Reagent: single siRNA against human genes, 0.8 pmol siRNA per well
Timing: 72 h
Read-out: 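Luciferase light (ONE-Glo) measured on one replicate plate set and viability (CellTiter-Glo) on the other, scaled to a negative control siRNA, with robust z-scores and luciferase per cell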
Reading the numbers: total luciferase, z-score and total luciferase, % of control: higher = more reporter protein produced; luciferase per cell, z-score: higher = more reporter output per viable cell; viable cells, % of control: higher = more viable cells
Hit rule: 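An siRNA counts as active if its total luciferase robust z-score exceeds 3; genes with two or more such siRNAs out of three were retested with fresh siRNAs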
Meaning of the calls: active = raised luciferase; inactive = no rise
Here is an unselected part of about 59,000 deposited reagents. About 1,510 of them (2.6%) count as active. 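Calls use total luciferase alone and ignore viability, so some active siRNAs may act by altering cell number.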 Entries without a mark were called inactive. The numbers tell different reagents against one gene apart. Reagent sequences are not shown.

The opening 3 records, to show the layout:
no.	gene symbol	siRNA no.	total luciferase, z-score	total luciferase, % of control	luciferase per cell, z-score	viable cells, % of control
1	ZNF624 (zinc finger protein 624)	1	-0.552	70.9	-0.659	94.3
2	ZNF624 (zinc finger protein 624)	2	-0.447	73	-0.894	103
3	ZNF624 (zinc finger protein 624)	3	0.111	84.1	-0.132	97.3

Results, from the first entry:
no.	gene symbol	siRNA no.	total luciferase, z-score	total luciferase, % of control	luciferase per cell, z-score	viable cells, % of control
1	ZNF624 (zinc finger protein 624)	1	-0.552	70.9	-0.659	94.3
2	ZNF624 (zinc finger protein 624)	2	-0.447	73	-0.894	103
3	ZNF624 (zinc finger protein 624)	3	0.111	84.1	-0.132	97.3
4	HSD3B7	1	-1.71	47.8	-0.849	66.8
5	HSD3B7	2	2.78	137	2.9	71.5
6	HSD3B7	3	0.842	98.6	0.771	90
7	GTF3C3 (general transcription factor IIIC subunit 3)	1	0.216	86.2	0.585	82.6
8	GTF3C3 (general transcription factor IIIC subunit 3)	2	-0.253	76.8	-0.355	94.3
9	GTF3C3 (general transcription factor IIIC subunit 3)	3	-0.986	62.3	-0.78	85.5
10	NKX3-2 (NK3 homeobox 2)	1	5.37 (active)	189	3.29	88.6
11	NKX3-2 (NK3 homeobox 2)	2	3.82 (active)	158	2.28	96.9
12	NKX3-2 (NK3 homeobox 2)	3	2.12	124	3.39	56.9
13	DNAJB13 (DnaJ heat shock protein family (Hsp40) member B13)	1	-2.07	40.7	-2.16	80.4
14	DNAJB13 (DnaJ heat shock protein family (Hsp40) member B13)	2	1.71	116	1.3	92.1
15	DNAJB13 (DnaJ heat shock protein family (Hsp40) member B13)	3	-0.919	63.6	-0.412	79.2
16	LANCL2 (LanC like glutathione S-transferase 2)	1	0.952	101	0.592	96.4
17	LANCL2 (LanC like glutathione S-transferase 2)	2	1.29	107	1.33	84.5
18	LANCL2 (LanC like glutathione S-transferase 2)	3	0.498	91.8	0.48	90.4
19	UBE3A (ubiquitin protein ligase E3A)	1	-0.105	79.8	-0.477	101
20	UBE3A (ubiquitin protein ligase E3A)	2	-1.04	61.2	-0.381	75.6
21	UBE3A (ubiquitin protein ligase E3A)	3	-1.8	46.1	-2.63	103
22	CACNA2D4	1	-0.99	62.2	-1.25	96.6
23	CACNA2D4	2	-0.77	66.6	0.334	68.1
24	CACNA2D4	3	-0.256	76.8	-0.292	92.7
25	HOXB1 (homeobox B1)	1	1.43	110	2.35	66.4
26	HOXB1 (homeobox B1)	2	-0.262	76.7	0.0816	83.9
27	HOXB1 (homeobox B1)	3	1.98	121	2.52	69.7
28	RTEL1 (regulator of telomere elongation helicase 1)	1	-0.798	66	-0.843	92.1
29	RTEL1 (regulator of telomere elongation helicase 1)	2	1.76	117	1.4	90.3
30	RTEL1 (regulator of telomere elongation helicase 1)	3	-0.00706	81.7	-0.209	96.5
31	ZNF818P (zinc finger protein 818, pseudogene)	1	-0.123	79.4	-0.238	94.5
32	ZNF818P (zinc finger protein 818, pseudogene)	2	-0.788	66.2	-0.73	89.7
33	ZNF818P (zinc finger protein 818, pseudogene)	3	-1.12	59.6	-1.72	105
34	NEURL3 (neuralized E3 ubiquitin protein ligase 3)	1	-0.0898	80.1	-0.271	96.1
35	NEURL3 (neuralized E3 ubiquitin protein ligase 3)	2	0.729	96.4	0.93	84.3
36	NEURL3 (neuralized E3 ubiquitin protein ligase 3)	3	-0.352	74.9	0.254	78.3
37	BLNK (B cell linker)	1	1.31	108	0.959	93.6
38	BLNK (B cell linker)	2	0.434	90.5	0.0111	101
39	BLNK (B cell linker)	3	0.349	88.8	0.0125	98.9
40	RHEX (regulator of hemoglobinization and erythroid cell expansion)	1	-0.26	76.7	0.575	73.7
41	RHEX (regulator of hemoglobinization and erythroid cell expansion)	2	0.721	96.2	0.576	92.4
42	RHEX (regulator of hemoglobinization and erythroid cell expansion)	3	2.96	141	1.65	102
43	CSRP3 (cysteine and glycine rich protein 3)	1	0.355	89	0.112	96.5
44	CSRP3 (cysteine and glycine rich protein 3)	2	0.234	86.5	-0.851	121
45	CSRP3 (cysteine and glycine rich protein 3)	3	-0.738	67.2	-0.494	85.5
46	ATAD3B (ATPase family AAA domain containing 3B)	1	0.387	89.6	0.0169	99.7
47	ATAD3B (ATPase family AAA domain containing 3B)	2	-0.9	64	-1.06	94.6
48	ATAD3B (ATPase family AAA domain containing 3B)	3	-0.166	78.6	-0.679	105
49	ARRB2 (arrestin beta 2)	1	3 (active)	142	1.49	107
50	ARRB2 (arrestin beta 2)	2	1.38	109	0.775	99.6
51	ARRB2 (arrestin beta 2)	3	-0.829	65.4	-0.292	78.9
52	SLFN12 (schlafen family member 12)	1	2.05	123	2.51	70.9
53	SLFN12 (schlafen family member 12)	2	-1.92	43.6	-1.7	76.2
54	SLFN12 (schlafen family member 12)	3	-2.08	40.5	-0.836	56.4
55	FSCN2 (fascin actin-bundling protein 2, retinal)	1	-0.747	67	-0.187	78.7
56	FSCN2 (fascin actin-bundling protein 2, retinal)	2	-0.253	76.8	-0.428	96.1
57	FSCN2 (fascin actin-bundling protein 2, retinal)	3	0.0376	82.6	0.353	84.1
